One molecule from patent US20230168258A1 (UNIVERSIDAD DE MURCIA, published 2023) can be followed below.

Results are given in words; binding and its absence hold for the method and conditions named. Some results given as binding are weak or reduced against the parent protein; the word gives no strength.

The target in this experiment is dog oxytocin (dog). As to the kind of experiment: dot-blot.

B1: monoclonal antibody P26C (antibody, V domains shown)
VH: QIQLVQSGPELKKPGETVKISCKASGYIFTNYGMNWVKQAPGKNLKWMGWINTNTGEPTYAEEFKGRFAFSLETSASIAYLKINNLKNEDTATYFCSRGGLLPLSYWGQGTLVTVSA
VL: DVVMTQTPLSLPVSLGDQASISCRSSQSLVHSNGNTYLHWFLQKPGQSPKLLIYKVSNRFSGVPDRFSGSGSGTDFTLKISRVEAEDLGVYFCSQSTHFPWTFGGGTKLEIK
notes: Mouse (BALB/c) hybridoma antibody; the isotype is stated as IgGk; It was tested as hybridoma supernatant in the ELISA; also called clone P26C; monoclonal antibody of the invention
Regarding B1, the binding entry is on record as “binds”.
